Measurements reported in PubChem BioAssay AID652243 (Drosophila RNAi Screening Center, 2013)
Screen: 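Fly genes required for human androgen receptor driven transcription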 (primary screen). System: Drosophila S2R+ cells. Reagent: long dsRNA against Drosophila genes. Duration: 72 h (48 h, then 24 h hormone). Challenge: synthetic androgen R1881 at 10 nM for 24 h. Detection: 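Firefly light from an androgen-responsive reporter and Renilla control light per well, raw and unnormalised, for each of two replicates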. Reading the numbers: firefly reporter light: higher = more light from androgen-responsive reporter; Renilla control light: higher = more constitutive control signal (cell number, transfection). Hit rule: 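Across duplicate plates, a knock-down whose log firefly/Renilla ratio shifted a set fold down or up from the GFP/LacZ control mean was a hit; the downward cut appears as both 1.5 and 3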. Calls: active = hit: reporter lowered or raised; inactive = no hit.
The deposit covers about 24,000 reagents; below is a random part of those that have a named target and a result. In the full data, 246 (1%) were called active. 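Plates not normalised; calls are printed but the firefly/Renilla ratio behind them is not deposited; fold cut for lowering reported inconsistently.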 Raw values vary from plate to plate and are shown uncorrected. Entries without a mark were called inactive. Not stated in the record: the amount of reagent.

| gene | amplicon | firefly reporter light, replicate 1 | firefly reporter light, replicate 2 | Renilla control light, replicate 1 | Renilla control light, replicate 2 |
| --- | --- | --- | --- | --- | --- |
| mdu | DRSC23192 | 1.03e6 | 9.06e5 | 2.02e6 | 1.68e6 |
| mdu | DRSC28604 | 5.04e5 | 3.10e5 | 1.05e6 | 1.03e6 |
| ced-6 | DRSC07591 | 5.52e5 | 7.04e5 | 1.14e6 | 1.20e6 |
| ced-6 | DRSC29627 | 4.10e5 | 5.53e5 | 6.93e5 | 6.93e5 |
| CG18765 | DRSC15392 | 1.87e5 | 1.58e5 | 2.77e6 | 2.60e6 |
| l(3)psg2 | DRSC10484 | 1.11e6 | 1.05e6 | 1.09e6 | 1.42e6 |
| l(3)psg2 | DRSC24075 | 7.40e5 | 8.78e5 | 8.90e5 | 9.10e5 |
| CG8001 | DRSC08611 | 1.51e6 | 7.62e5 | 1.50e6 | 8.78e5 |
| CG15312 | DRSC18000 | 56050 | 71466 | 5.86e5 | 7.04e5 |
| CG15312 | DRSC27198 | 4.55e5 | 3.13e5 | 8.32e5 | 7.22e5 |
| lms | DRSC06387 | 52689 | 66102 | 8.13e5 | 9.18e5 |
| lms | DRSC27541 | 2.54e5 | 2.06e5 | 3.88e5 | 7.74e5 |
| CG7798 | DRSC07047 | 75226 | 72853 | 8.67e5 | 8.67e5 |
| MnM | DRSC08423 | 1.10e5 | 1.20e5 | 2.18e6 | 2.19e6 |
| CG14285 | DRSC14766 | 2.38e5 | 2.40e5 | 2.62e6 | 2.98e6 |
| CG42238 | DRSC03180 | 1.20e6 | 5.00e5 | 2.98e6 | 1.64e6 |
| Xpc | DRSC07654 | 1.79e6 | 1.59e6 | 2.36e6 | 2.32e6 |

Copied from the listing for reference:
| gene | amplicon | firefly reporter light, replicate 1 | firefly reporter light, replicate 2 | Renilla control light, replicate 1 | Renilla control light, replicate 2 |
| --- | --- | --- | --- | --- | --- |
| mdu | DRSC28604 | 5.04e5 | 3.10e5 | 1.05e6 | 1.03e6 |
| ced-6 | DRSC07591 | 5.52e5 | 7.04e5 | 1.14e6 | 1.20e6 |
| ced-6 | DRSC29627 | 4.10e5 | 5.53e5 | 6.93e5 | 6.93e5 |
| CG18765 | DRSC15392 | 1.87e5 | 1.58e5 | 2.77e6 | 2.60e6 |

Additional results:
| gene | amplicon | firefly reporter light, replicate 1 | firefly reporter light, replicate 2 | Renilla control light, replicate 1 | Renilla control light, replicate 2 |
| --- | --- | --- | --- | --- | --- |
| CG11594 | DRSC08207 | 1.14e6 | 5.66e5 | 1.98e6 | 1.38e6 |
| kumpel | DRSC14883 | 1.33e5 | 1.77e5 | 2.55e6 | 2.57e6 |
| kumpel | DRSC16459 | 2.27e5 | 2.34e5 | 2.19e6 | 1.94e6 |
| kumpel | DRSC16460 | 2.54e5 | 1.75e5 | 2.83e6 | 2.93e6 |
| kumpel | DRSC16461 | 2.24e5 | 1.72e5 | 2.15e6 | 2.48e6 |
| kumpel | DRSC16462 | 1.91e5 | 2.68e5 | 2.15e6 | 2.90e6 |
| kumpel | DRSC16463 | 2.44e5 | 2.43e5 | 3.49e6 | 3.18e6 |
| kumpel | DRSC25593 | 8.52e5 | 8.66e5 | 1.18e6 | 1.21e6 |
| kumpel | DRSC27664 | 4.25e5 | 3.31e5 | 5.55e5 | 4.84e5 |
